Laboratory results from article doi:10.1101/2022.10.30.514401.
These are yes or no findings as the source states them, for the method shown. In cells and extracts the contact can be indirect.

Tests used:
[1] = molecular target: YAP (mouse (endogenous in mouse ISCs)), P46938; experiment: co-IP; settings: remark: other sources report otherwise
[2] = molecular target: YAP (pCMV6-YAP, mouse) (mouse), P46938; experiment: co-IP; settings: remark: other sources report otherwise

Binder | binding [1] | binding [2]
14-3-3 gamma, P61982 1-247 (protein) MVDREQLVQKARLAEQAERYDDMAAAMKNVTELNEPLSNEERNLLSVAYKNVVGARRSSWRVISSIEQKTSADGNEKKIEMVRAYREKIEKELEAVCQDVLSLLDNYLIKNCSETQYESKVFYLKMKGDYYRYLAEVATGEKRATVVESSEKAYSEAHEISKEHMQPTHPIRLGLALNYSVFYYEIQNAPEQACHLAKTAFDDAIAELDTLNEDSYKDSTLIMQLLRDNLTLWTSDQQDDDGGEGNN | no binding | 
14-3-3 gamma (pCMV6-14-3-3 gamma, mouse), P61982 1-247 (protein) MVDREQLVQKARLAEQAERYDDMAAAMKNVTELNEPLSNEERNLLSVAYKNVVGARRSSWRVISSIEQKTSADGNEKKIEMVRAYREKIEKELEAVCQDVLSLLDNYLIKNCSETQYESKVFYLKMKGDYYRYLAEVATGEKRATVVESSEKAYSEAHEISKEHMQPTHPIRLGLALNYSVFYYEIQNAPEQACHLAKTAFDDAIAELDTLNEDSYKDSTLIMQLLRDNLTLWTSDQQDDDGGEGNN |  | no binding
